Reference: patent US6645916B1, “2,4-diamino-1,3,5-triazines, their preparation and their use as herbicides and plant growth regulators” (Hoechst Schering AgrEvo GmbH, priority 1997, dated 2003)
Some results were stated once for a whole list of compounds, not compound by compound.

Experiments:
[1] = system: harmful plants such as Sorghum halepense, Digitaria adscendens, Setaria pumila, Avena fatua, Galium aparine, Polygonum persicaria, Veronica persica, Amaranthus …; assay: Post-emergence action against weeds (greenhouse pot test, visual rating); format: in vivo, monocotyledonous and dicotyledonous weeds; conditions: applied post-emergence at the three-leaf stage at a rate of 1.25 kg or less of active substance per hectare, about 3 to 4 weeks, by comparison with untreated controls
[2] = system: harmful plants such as Stellaria media, Matricaria inodora, Sorghum halepense, Digitaria adscendens, Setaria pumila, Avena fatua, Galium aparine, Polygonum …; assay: Preemergence action against weeds (greenhouse pot test, visual rating); format: in vivo, monocotyledonous or dicotyledonous weed plants; conditions: applied pre-emergence at a rate of 1.25 kg of active substance per hectare, 3 to 4 weeks, by comparison with untreated controls
[3] = system: harmful plants which are typical for rice crops, for example Cyperus monti, Eleocharis acicularis, Echinochloa crus-galli and Sagittaria pygmaea; assay: Action on weeds in rice (paddy rice conditions, visual rating); format: in vivo, typical rice weeds (gramineous and broad-leaved); conditions: poured into the dammed water, different dosages, about three weeks after application, by comparison with untreated controls

SMILES | herbicidal activity (visual rating) [1] | herbicidal activity (visual rating of damage to the plants or negative effect on emergence) [2] | herbicidal activity (visual rating of the damage to the plants) [3]
CCC(COc1cc(Cl)cc(Cl)c1)Nc1nc(N)nc(C(C)C)n1 (stereo not drawn) [Example 56] | herbicidal activity | herbicidal activity | very good herbicidal activity
CCC(COc1cc(C)cc(Br)c1)Nc1nc(N)nc(C(C)C)n1 (stereo not drawn) [Example 62] | herbicidal activity | herbicidal activity | very good herbicidal activity
CCC(COc1cc(F)cc(OC)c1)Nc1nc(N)nc(C(C)C)n1 (stereo not drawn) [Example 64] | herbicidal activity | herbicidal activity | very good herbicidal activity
CCC(COc1cc(Cl)cc(OC)c1)Nc1nc(N)nc(C(C)C)n1 (stereo not drawn) [Example 65] | herbicidal activity | herbicidal activity | very good herbicidal activity
CCC(COc1cccc(C(F)(F)F)c1)Nc1nc(N)nc(C(C)C)n1 (stereo not drawn) [Example 68, 2-Amino4-isopropyl-6-[2-(3-trifluoromethylphenoxy)-1-ethyl-ethylamino]-1,3,5-triazine] | herbicidal activity | herbicidal activity | very good herbicidal activity
CCC(COc1cccc(OC(F)(F)F)c1)Nc1nc(N)nc(C(C)C)n1 (stereo not drawn) [Example 69] | herbicidal activity | herbicidal activity | very good herbicidal activity
CCC(COc1cccc(OC(F)(F)C(F)F)c1)Nc1nc(N)nc(C(C)C)n1 (stereo not drawn) [Example 70] | herbicidal activity | herbicidal activity | very good herbicidal activity
CC(C)c1nc(N)nc(NC(COc2ccccc2)C(C)C)n1 (stereo not drawn) [Example 76] | herbicidal activity | herbicidal activity | very good herbicidal activity
Cc1cccc(OCC(Nc2nc(N)nc(C(C)C)n2)C(C)C)c1 (stereo not drawn) [Example 77] | herbicidal activity | herbicidal activity | very good herbicidal activity
CC(C)c1nc(N)nc(NC(COc2cccc(F)c2)C(C)C)n1 (stereo not drawn) [Example 79] | herbicidal activity | herbicidal activity | very good herbicidal activity
CC(C)c1nc(N)nc(NC(COc2cccc(Cl)c2)C(C)C)n1 (stereo not drawn) [Example 80] | herbicidal activity | herbicidal activity | very good herbicidal activity
COc1cccc(OCC(Nc2nc(N)nc(C(C)C)n2)C(C)C)c1 (stereo not drawn) [Example 83] | herbicidal activity | herbicidal activity | very good herbicidal activity
CC(C)c1nc(N)nc(NC(COc2ccccc2)C2CC2)n1 (stereo not drawn) [Example 101] | herbicidal activity | herbicidal activity | very good herbicidal activity
Cc1cccc(OCC(Nc2nc(N)nc(C(C)C)n2)C2CC2)c1 (stereo not drawn) [Example 102] | herbicidal activity | herbicidal activity | very good herbicidal activity
CC(C)c1nc(N)nc(NC(COc2cccc(F)c2)C2CC2)n1 (stereo not drawn) [Example 106] | herbicidal activity | herbicidal activity | very good herbicidal activity
CC(C)c1nc(N)nc(NC(COc2cccc(Cl)c2)C2CC2)n1 (stereo not drawn) [Example 107] | herbicidal activity | herbicidal activity | very good herbicidal activity
CC(C)c1nc(N)nc(NC(COc2cccc(Br)c2)C2CC2)n1 (stereo not drawn) [Example 108] | herbicidal activity | herbicidal activity | very good herbicidal activity

SMILES | herbicidal activity (visual rating) [1] | herbicidal activity (visual rating of damage to the plants or negative effect on emergence) [2] | herbicidal activity (visual rating of the damage to the plants) [3]
CC(C)c1nc(N)nc(NC(COc2cccc(I)c2)C2CC2)n1 (stereo not drawn) [Example 109] | herbicidal activity | herbicidal activity | very good herbicidal activity
COc1cccc(OCC(Nc2nc(N)nc(C(C)C)n2)C2CC2)c1 (stereo not drawn) [Example 110] | herbicidal activity | herbicidal activity | very good herbicidal activity
CC(C)c1nc(N)nc(NC(COc2cc(F)cc(F)c2)C2CC2)n1 (stereo not drawn) [Example 111] | herbicidal activity | herbicidal activity | very good herbicidal activity
COc1cc(Cl)cc(OCC(Nc2nc(N)nc(C(C)C)n2)C2CC2)c1 (stereo not drawn) [Example 123] | herbicidal activity | herbicidal activity | very good herbicidal activity
CC(COc1cccc(-c2ccccc2)c1)Nc1nc(N)nc(C(C)(C)F)n1 (stereo not drawn) [Example 126] | herbicidal activity | herbicidal activity | very good herbicidal activity
C#Cc1cccc(OCC(C)Nc2nc(N)nc(C(C)(C)F)n2)c1 (stereo not drawn) [Example 130] | herbicidal activity | herbicidal activity | very good herbicidal activity
CC(COc1cccc(C#Cc2ccccc2)c1)Nc1nc(N)nc(C(C)(C)F)n1 (stereo not drawn) [Example 134] | herbicidal activity | herbicidal activity | very good herbicidal activity
CC(COc1cccc(N(C)C)c1)Nc1nc(N)nc(C(C)(C)F)n1 (stereo not drawn) [Example 148] | herbicidal activity | herbicidal activity | very good herbicidal activity
CC(COc1cccc(C#N)c1)Nc1nc(N)nc(C(C)(C)F)n1 (stereo not drawn) [Example 149] | herbicidal activity | herbicidal activity | very good herbicidal activity
CC(COc1cccc(I)c1)Nc1nc(N)nc(C(C)(C)F)n1 (stereo not drawn) [Example 151, 2-Amino4-(1-fluoro-1-methylethyl)6-[2-(3-iodophenoxy)-1-methyl-ethylamino]-1,3,5-triazine] | herbicidal activity | herbicidal activity | very good herbicidal activity
CC(COc1cccc(Br)c1)Nc1nc(N)nc(C(C)(C)F)n1 (stereo not drawn) [Example 152] | herbicidal activity | herbicidal activity | very good herbicidal activity
CC(COc1cccc(Cl)c1)Nc1nc(N)nc(C(C)(C)F)n1 (stereo not drawn) [Example 153] | herbicidal activity | herbicidal activity | very good herbicidal activity
Cc1cc(I)cc(OCC(C)Nc2nc(N)nc(C(C)(C)F)n2)c1 (stereo not drawn) [Example 154] | herbicidal activity | herbicidal activity | very good herbicidal activity
Cc1cc(Br)cc(OCC(C)Nc2nc(N)nc(C(C)(C)F)n2)c1 (stereo not drawn) [Example 155] | herbicidal activity | herbicidal activity | very good herbicidal activity
Cc1cc(Cl)cc(OCC(C)Nc2nc(N)nc(C(C)(C)F)n2)c1 (stereo not drawn) [Example 156] | herbicidal activity | herbicidal activity | very good herbicidal activity
CC(COc1ccccc1Cl)Nc1nc(N)nc(C(C)(C)F)n1 (stereo not drawn) [Example 172] | herbicidal activity | herbicidal activity | very good herbicidal activity
